No constants are given. Whether binding was seen depends on the method and setting. In cells and extracts the contact can be indirect. Binding calls can cover weak binding; strength is not graded here.
Target: T1, endogenous C9orf72 (mouse brain) (mouse (endogenous in mouse brain)) (UniProt Q6DFW0)
T1 sequence: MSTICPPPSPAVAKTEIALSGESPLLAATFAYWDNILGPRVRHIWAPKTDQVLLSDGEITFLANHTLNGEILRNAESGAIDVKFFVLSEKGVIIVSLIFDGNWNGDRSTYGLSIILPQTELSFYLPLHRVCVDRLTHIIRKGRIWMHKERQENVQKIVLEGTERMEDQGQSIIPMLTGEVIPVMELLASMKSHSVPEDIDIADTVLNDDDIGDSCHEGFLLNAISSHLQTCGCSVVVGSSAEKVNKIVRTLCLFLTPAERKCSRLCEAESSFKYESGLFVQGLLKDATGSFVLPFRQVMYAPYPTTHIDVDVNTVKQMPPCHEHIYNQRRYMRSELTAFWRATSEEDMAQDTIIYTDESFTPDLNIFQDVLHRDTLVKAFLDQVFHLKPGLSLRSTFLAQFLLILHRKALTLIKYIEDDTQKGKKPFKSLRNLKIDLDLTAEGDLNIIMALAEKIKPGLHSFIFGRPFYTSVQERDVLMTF
Assay: co-IP; endogenous C9orf72 precipitated from adult mouse brain extract in RIPA buffer with mAb 1C1 overnight at 4 °C, then A/G magnetic beads for 3 h at 4 °C; control IgG alone; immunoblot against RAB3

For endogenous RAB3 (mouse brain), the binding was “binds”.

From article PMC6091050
